The source of these data is PubChem BioAssay AID493014 (National Center for Advancing Translational Sciences (NCATS), 2011).

Several values for one entry are separate records, joined by “and”; a condition that tells them apart may be missing. Identical values can stand only once. The list shows a part of the results. Further columns of the screen follow, without active or inactive calls. Compounds called inactive in the main read-out are mostly missing here. The note in brackets gives the kind of curve behind each potency; many fits are weak.

The nature of this experiment: qHTS Assay to Find Inhibitors of Chronic Active B-Cell Receptor Signaling. The settings on record: ABC-DLBCL IkBa-CBG/CBR reporter, luminescence ratio (green luciferase fused to IkBa over red control in TMD8 lymphoma cells), 4 h. A digest of the protocol: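 TMD8 human ABC-DLBCL cells with doxycycline-inducible IκBα–green luciferase fusion and unfused red luciferase, in 0.5% FBS medium; compounds up to 46 uM, 4 h at 37C. Green/red luminescence ratio, filter-overlap corrected, fitted to concentration-response curves.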
(In general: qHTS replaces the single test concentration by a dilution series.)

Setting [1] is: measured here: CBR red luminescence, cell number.
[2] abbreviates: measured here: IkBa-CBG green luminescence.

A word on the AC50: it is the midpoint of the concentration-response curve, whichever way the signal moves. Consider `O=c1oc2c3c4c(cc2s1)CCCN4CCC3`, for which the half-maximal activity concentration (AC50) under setting [1] is 0.82 µM [rising, full curve, poor fit].

With `COc1ccc(N2CC(C(=O)Nc3nc4ccc(F)cc4s3)CC2=O)c(OC)c1` (configuration not stated), the AC50 under setting [1] is 11.2 µM [falling, single point].

`Cc1cccc2cc(CN(Cc3ccco3)C(=O)c3cccs3)c(=O)[nH]c12`: the concentration at half-maximal activity (AC50) under setting [1] is 3.66 µM [rising, single point].

For `CCC(C)[C@@H](C(=O)Nc1ccc(OC)c(OC)c1)N1Cc2ccccc2C1=O` (some centres not stated), the AC50 under setting [1] is 23.1 µM [falling, partial curve, poor fit].

`Fc1cccc(Cl)c1CN1CCN(c2nc3ccccc3s2)CC1`: the concentration at half-maximal activity (AC50) under setting [1] is 0.631 µM [rising, full curve].

For the molecule `CCOC(=O)CSc1nc2sc3c(c2c(=O)n1-c1ccccc1)CCN(C)C3`, under setting [1], the AC50 is 17.8 µM [rising, partial curve, poor fit].

As for `C=CCSc1nc2c(c(=O)[nH]c(=O)n2C)n1C(C)C`, the AC50 by setting is: under setting [1], 32.6 µM [rising, single point]; under setting [2], 20.6 µM [falling, partial curve, poor fit].

On to `COc1ccc(C(=O)c2cc([N+](=O)[O-])ccc2N2CCN(C)CC2)cc1`, for which, under setting [2], the AC50 is 12.6 µM [falling, single point].

In the case of `O=C(N/N=C/C(Cl)=C/c1ccccc1)c1ccccc1F`, the half-maximal activity concentration (AC50) under setting [1] is 3.98 µM [falling, partial curve].

With `O=C1CC(c2ccccc2)CC(O)=C1C=Nc1ccccc1Cl` (configuration not stated), under setting [1], the AC50 was 9.2 µM [falling, partial curve].

For `O=C(Nc1nc(-c2ccccc2)cs1)C1CCCN(S(=O)(=O)c2ccccc2)C1` (configuration not stated), under setting [1], the concentration at half-maximal activity (AC50) is 1.26 µM [falling, full curve].

Take `Cc1cc(N2CCN(c3cccc(C(F)(F)F)c3)CC2)n2nc(C)nc2n1`: the AC50 under setting [1] is 0.0517 µM [rising, full curve, poor fit].

On to `COc1cc2c(cc1OC)[C@@H]1O[C@](CCCCN3C(=O)c4ccccc4C3=O)(C2)Oc2cc(C)n(-c3ccccc3)c(=O)c21`, for which, under setting [2], the AC50 was 3.98 µM [rising, partial curve, poor fit].

As for `C/C(Cn1nnc([N+](=O)[O-])n1)=N\NC(=O)c1ccccc1`, under setting [1], the AC50 was 7.08 µM [falling, full curve].

Take `O=C(N/N=C/C(Br)=C\c1ccccc1)c1cccs1`: the AC50 under setting [1] was 12.6 µM [falling, partial curve].

Turning to `COc1cc2c(cc1OC)C1O[C@](CCCCN3C(=O)c4ccccc4C3=O)(C2)Oc2cc(C)n(Cc3ccccc3)c(=O)c21`, under setting [1], the concentration at half-maximal activity (AC50) was 1.41 µM [rising, partial curve].

`Cc1ccc(CSC(Nc2ccc(F)cc2)=C(C#N)C#N)cc1`: the AC50 under setting [1] was 7.31 µM [falling, partial curve].

With `Cn1c(NN)nc2c1c(=O)n(Cc1ccccc1)c(=O)n2C`, the half-maximal activity concentration (AC50) under setting [1] was 10 µM [falling, partial curve, poor fit].

Regarding `O=C(CCS(=O)(=O)Cc1ccc(Cl)cc1)NCCCN1CCN(c2ccccc2F)CC1`, the AC50 under setting [1] was 20.6 µM [falling, single point].

Consider `Cc1ccc2sc(N(CCCN(C)C)C(=O)c3ccc(S(=O)(=O)N(C)C)cc3)nc2c1C`, for which, under setting [1], the AC50 was 12.6 µM [falling, partial curve].

Consider `COc1cccc(Nc2nc3ccc(OC)cc3s2)c1`, for which the AC50 under setting [1] was 25.1 µM [falling, single point].

For `O=C(O)c1ccccc1NC(=S)NC(=O)c1cccc2ccccc12`, the AC50 under setting [1] is 10 µM [falling, partial curve].

With `O=C(NCc1ccccn1)c1cc(-c2ccccc2)on1`, under setting [1], the AC50 was 23.1 µM [falling, single point].

Turning to `O=C(Nc1ccccc1)Nc1ccccc1NS(=O)(=O)c1cccs1`, the AC50 under setting [1] is 0.0092 µM [rising, full curve, poor fit].

In the case of `O=C1CN(C(=O)c2c(F)cccc2F)C(c2ccccc2)c2cc(Br)ccc2N1` (configuration not stated), the AC50 under setting [1] was 35.5 µM [falling, single point].

With `O=S(=O)(CCN1CCN(C(c2ccccc2)c2ccccc2)CC1)C(F)(F)F`, under setting [1], the concentration at half-maximal activity (AC50) was 22.4 µM [falling, single point].

As to `CCC(=O)N1CCN(c2ccc(NC(=O)COc3ccc(CC)cc3)cc2)CC1`, the AC50 under setting [1] was 0.631 µM [falling, partial curve, poor fit].

Take `COc1cc(NC(=O)Nc2cccc(Cl)c2)c(OC)cc1NC(=O)CN1CCCCC1`: the concentration at half-maximal activity (AC50) under setting [1] is 0.731 µM [falling, partial curve, poor fit].

Regarding `COc1ccc(/C=C/C(=O)N2CCCc3ccccc32)cc1`, the concentration at half-maximal activity (AC50) was 29.1 µM [falling, single point] under setting [1] and 6.51 µM [falling, partial curve, poor fit] under setting [2].

Turning to `Cc1nnc2ccc(-c3cccc(NS(=O)(=O)c4ccccc4[N+](=O)[O-])c3)nn12`, under setting [2], the half-maximal activity concentration (AC50) was 3.66 µM [falling, partial curve, poor fit].

As to `O=C(Nc1ccccc1)c1cc2ccccc2c(=O)s1`, the AC50 under setting [1] was 29.1 µM [falling, single point].

In the case of `Cc1cc(NC(=O)NC(=O)c2ccc(F)cc2F)n[nH]1`, the half-maximal activity concentration (AC50) under setting [1] is 4.47 µM [falling, partial curve].

`Cc1cc2c(cc1S(=O)(=O)CCC(=O)N(C)C1CCCCC1)OCC(=O)N2`: the AC50 under setting [1] was 22.4 µM [rising, single point].

Take `CCCn1c(=O)c2ccccc2n2c(SCCOc3ccccc3F)nnc12`: under setting [1], the half-maximal activity concentration (AC50) is 32.6 µM [falling, single point].

With `O=C(N/N=C\C=C\c1ccc2c(c1)OCO2)c1ccc(F)cc1`, the AC50 under setting [1] was 12.6 µM [falling, partial curve, poor fit].

For the molecule `CCN1C/C(=C/c2ccc(OC)c(O)c2)C(=O)/C(=C/c2ccc(OC)c(O)c2)C1`, the half-maximal activity concentration (AC50) is 35.5 µM [falling, single point] under setting [1] and 3.16 µM [falling, single point] under setting [2].

For `CCN1CCN(Cc2ccc(NC(=O)c3ccc(C)c(NC(=O)C(=O)c4c[nH]c5ccccc45)c3)cc2C(F)(F)F)CC1`, the AC50 under setting [1] is 5.62 µM [falling, partial curve] and 2.82 µM [falling, full curve]; the half-maximal activity concentration (AC50) under setting [2] was 14.1 µM [rising, partial curve, poor fit].

Regarding `Cc1ccc(C(=O)CSc2nnc(-c3cccs3)n2C)o1`, under setting [1], the concentration at half-maximal activity (AC50) was 0.326 µM [rising, partial curve, poor fit].
